The values that follow come from the supplement of paper PMC12067093, “Discovery and optimisation of a covalent ligand for TRIM25 and its application to targeted protein ubiquitination” (Chemical Science, 2025).

Sequences of proteins named here, by UniProt entry; tags and fusion partners are left off. A change or cut given only in a name is not applied to a line headed by its entry.
UniProt Q9NRF8: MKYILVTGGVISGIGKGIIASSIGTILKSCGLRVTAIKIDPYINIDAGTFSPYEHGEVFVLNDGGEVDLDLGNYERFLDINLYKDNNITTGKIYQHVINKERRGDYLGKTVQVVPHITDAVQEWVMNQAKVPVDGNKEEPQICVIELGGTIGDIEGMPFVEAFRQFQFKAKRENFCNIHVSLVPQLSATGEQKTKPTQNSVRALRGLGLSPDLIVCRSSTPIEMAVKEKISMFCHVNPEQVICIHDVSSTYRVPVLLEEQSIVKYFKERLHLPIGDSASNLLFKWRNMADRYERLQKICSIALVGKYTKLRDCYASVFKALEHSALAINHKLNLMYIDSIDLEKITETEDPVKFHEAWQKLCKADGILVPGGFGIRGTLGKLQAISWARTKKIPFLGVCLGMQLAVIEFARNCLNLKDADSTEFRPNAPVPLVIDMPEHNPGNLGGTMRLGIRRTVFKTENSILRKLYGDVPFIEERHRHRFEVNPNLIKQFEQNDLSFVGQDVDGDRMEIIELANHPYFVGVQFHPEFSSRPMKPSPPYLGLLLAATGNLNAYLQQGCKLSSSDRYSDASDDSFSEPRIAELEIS
UniProt Q69YN2: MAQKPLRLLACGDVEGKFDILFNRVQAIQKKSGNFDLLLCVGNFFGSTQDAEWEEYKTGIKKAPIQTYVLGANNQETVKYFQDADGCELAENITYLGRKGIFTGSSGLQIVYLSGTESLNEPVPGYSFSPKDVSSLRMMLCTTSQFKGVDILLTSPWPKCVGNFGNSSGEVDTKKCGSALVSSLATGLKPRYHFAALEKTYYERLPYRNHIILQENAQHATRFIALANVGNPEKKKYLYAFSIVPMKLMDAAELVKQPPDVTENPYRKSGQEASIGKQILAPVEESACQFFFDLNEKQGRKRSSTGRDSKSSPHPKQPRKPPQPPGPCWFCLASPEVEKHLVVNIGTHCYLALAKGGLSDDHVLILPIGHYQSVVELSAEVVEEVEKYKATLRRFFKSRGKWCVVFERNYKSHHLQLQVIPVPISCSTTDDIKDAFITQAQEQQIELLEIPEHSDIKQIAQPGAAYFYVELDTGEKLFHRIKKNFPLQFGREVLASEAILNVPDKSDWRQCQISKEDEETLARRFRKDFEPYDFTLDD
UniProt Q9P0U4, whole entry, looked up: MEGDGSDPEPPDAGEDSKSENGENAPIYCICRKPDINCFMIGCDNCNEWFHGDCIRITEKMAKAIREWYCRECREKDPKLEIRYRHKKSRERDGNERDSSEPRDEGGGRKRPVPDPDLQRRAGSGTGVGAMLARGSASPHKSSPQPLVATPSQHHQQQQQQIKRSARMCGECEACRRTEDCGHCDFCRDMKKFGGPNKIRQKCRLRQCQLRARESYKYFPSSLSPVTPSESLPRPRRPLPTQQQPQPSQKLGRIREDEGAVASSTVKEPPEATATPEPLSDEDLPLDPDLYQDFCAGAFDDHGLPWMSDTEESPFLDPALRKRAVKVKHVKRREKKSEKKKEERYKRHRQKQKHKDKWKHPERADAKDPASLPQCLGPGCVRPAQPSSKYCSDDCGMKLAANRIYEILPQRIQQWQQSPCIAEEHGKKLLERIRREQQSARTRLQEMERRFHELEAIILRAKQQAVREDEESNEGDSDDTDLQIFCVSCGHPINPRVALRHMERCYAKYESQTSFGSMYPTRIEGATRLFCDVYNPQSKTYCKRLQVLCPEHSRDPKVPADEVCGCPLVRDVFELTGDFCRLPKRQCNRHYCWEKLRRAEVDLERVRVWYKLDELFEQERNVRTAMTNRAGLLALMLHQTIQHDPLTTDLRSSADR
UniProt O00399, whole entry: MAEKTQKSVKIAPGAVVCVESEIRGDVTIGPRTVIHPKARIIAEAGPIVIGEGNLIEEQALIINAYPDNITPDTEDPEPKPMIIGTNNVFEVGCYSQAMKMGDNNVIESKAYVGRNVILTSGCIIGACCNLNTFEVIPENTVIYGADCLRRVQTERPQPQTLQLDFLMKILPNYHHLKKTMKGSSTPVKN
UniProt P25774, whole entry, looked up: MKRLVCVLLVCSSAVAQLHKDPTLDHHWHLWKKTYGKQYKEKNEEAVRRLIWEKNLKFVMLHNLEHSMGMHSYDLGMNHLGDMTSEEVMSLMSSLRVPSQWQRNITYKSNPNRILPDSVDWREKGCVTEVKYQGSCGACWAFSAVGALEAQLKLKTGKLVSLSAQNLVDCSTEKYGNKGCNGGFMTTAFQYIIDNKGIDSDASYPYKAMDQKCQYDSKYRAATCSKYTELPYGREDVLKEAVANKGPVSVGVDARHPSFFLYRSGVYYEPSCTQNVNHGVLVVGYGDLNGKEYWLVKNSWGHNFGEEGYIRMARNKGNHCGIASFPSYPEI
UniProt Q6PI48: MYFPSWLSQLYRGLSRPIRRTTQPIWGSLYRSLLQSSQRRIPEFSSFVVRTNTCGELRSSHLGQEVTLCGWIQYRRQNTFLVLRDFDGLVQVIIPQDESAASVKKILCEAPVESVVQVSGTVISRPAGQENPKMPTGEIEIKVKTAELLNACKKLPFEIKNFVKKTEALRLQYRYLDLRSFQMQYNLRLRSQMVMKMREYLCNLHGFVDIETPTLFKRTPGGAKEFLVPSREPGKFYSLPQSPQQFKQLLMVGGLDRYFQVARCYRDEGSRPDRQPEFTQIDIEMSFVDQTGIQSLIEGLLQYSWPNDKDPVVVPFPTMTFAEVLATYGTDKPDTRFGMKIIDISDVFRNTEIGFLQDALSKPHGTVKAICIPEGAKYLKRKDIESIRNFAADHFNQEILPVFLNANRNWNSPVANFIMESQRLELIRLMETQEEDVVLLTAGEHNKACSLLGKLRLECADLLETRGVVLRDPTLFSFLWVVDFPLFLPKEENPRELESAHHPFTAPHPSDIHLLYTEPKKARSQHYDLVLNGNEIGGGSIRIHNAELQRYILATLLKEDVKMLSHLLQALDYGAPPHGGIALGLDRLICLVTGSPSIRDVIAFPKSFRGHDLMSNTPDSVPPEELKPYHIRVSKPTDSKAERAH
UniProt Q9NV06: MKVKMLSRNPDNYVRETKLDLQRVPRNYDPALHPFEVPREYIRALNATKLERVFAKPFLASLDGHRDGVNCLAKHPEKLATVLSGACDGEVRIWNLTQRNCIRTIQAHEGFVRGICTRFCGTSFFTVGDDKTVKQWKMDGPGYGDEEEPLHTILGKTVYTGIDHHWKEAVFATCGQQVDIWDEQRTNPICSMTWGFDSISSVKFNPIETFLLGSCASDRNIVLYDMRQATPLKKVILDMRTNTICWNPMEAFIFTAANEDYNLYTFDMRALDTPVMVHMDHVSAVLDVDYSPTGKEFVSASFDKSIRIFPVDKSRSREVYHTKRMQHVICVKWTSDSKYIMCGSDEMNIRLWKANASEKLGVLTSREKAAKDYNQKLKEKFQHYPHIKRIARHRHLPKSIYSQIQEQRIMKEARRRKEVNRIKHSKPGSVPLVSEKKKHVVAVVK
UniProt Q9UK59: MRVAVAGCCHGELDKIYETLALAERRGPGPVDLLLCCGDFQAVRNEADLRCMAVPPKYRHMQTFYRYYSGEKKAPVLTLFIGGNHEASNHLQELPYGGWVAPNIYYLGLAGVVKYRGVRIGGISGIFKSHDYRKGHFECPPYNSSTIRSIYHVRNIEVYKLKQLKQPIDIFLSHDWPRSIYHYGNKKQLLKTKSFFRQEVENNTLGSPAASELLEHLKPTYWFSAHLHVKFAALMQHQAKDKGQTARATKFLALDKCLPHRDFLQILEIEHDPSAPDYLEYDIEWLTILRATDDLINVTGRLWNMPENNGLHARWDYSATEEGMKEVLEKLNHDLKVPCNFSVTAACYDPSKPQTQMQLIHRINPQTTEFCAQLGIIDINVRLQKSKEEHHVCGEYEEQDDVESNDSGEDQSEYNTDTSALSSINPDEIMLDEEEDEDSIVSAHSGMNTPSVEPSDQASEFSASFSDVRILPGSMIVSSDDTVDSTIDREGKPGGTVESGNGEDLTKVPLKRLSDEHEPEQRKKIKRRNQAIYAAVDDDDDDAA
UniProt Q7L1T6: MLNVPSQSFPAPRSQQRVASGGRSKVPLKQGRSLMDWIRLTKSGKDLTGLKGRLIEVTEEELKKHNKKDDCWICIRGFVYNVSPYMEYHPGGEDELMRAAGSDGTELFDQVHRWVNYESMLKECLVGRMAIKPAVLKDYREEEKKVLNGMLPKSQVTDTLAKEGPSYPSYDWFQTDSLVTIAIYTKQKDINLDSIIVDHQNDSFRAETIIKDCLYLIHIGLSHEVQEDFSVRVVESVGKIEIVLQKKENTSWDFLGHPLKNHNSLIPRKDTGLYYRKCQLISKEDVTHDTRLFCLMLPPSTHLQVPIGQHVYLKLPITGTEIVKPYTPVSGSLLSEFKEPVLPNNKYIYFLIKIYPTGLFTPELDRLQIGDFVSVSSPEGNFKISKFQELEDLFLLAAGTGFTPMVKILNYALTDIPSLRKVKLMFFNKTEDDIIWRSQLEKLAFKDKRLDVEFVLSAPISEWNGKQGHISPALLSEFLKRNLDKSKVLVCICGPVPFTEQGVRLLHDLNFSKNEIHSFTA
UniProt Q13616, whole entry, looked up: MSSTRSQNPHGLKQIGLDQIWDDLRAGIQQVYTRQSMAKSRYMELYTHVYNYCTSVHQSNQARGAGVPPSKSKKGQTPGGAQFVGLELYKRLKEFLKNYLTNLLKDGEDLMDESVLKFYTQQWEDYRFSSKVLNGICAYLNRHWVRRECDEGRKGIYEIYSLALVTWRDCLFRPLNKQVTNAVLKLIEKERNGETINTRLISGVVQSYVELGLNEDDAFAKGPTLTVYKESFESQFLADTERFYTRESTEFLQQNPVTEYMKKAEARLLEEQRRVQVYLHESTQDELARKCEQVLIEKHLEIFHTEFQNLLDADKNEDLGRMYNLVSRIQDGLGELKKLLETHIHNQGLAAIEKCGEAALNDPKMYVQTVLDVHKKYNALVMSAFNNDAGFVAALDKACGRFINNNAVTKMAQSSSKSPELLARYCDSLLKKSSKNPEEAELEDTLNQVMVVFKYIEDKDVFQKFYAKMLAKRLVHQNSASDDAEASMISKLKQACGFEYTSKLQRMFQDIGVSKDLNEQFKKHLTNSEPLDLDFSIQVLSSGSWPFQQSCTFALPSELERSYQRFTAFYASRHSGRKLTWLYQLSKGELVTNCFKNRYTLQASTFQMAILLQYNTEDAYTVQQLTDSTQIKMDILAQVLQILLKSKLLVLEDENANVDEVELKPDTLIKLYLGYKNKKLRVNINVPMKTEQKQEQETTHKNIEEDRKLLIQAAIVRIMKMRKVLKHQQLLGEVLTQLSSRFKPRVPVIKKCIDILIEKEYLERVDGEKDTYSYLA
UniProt Q5TAQ9: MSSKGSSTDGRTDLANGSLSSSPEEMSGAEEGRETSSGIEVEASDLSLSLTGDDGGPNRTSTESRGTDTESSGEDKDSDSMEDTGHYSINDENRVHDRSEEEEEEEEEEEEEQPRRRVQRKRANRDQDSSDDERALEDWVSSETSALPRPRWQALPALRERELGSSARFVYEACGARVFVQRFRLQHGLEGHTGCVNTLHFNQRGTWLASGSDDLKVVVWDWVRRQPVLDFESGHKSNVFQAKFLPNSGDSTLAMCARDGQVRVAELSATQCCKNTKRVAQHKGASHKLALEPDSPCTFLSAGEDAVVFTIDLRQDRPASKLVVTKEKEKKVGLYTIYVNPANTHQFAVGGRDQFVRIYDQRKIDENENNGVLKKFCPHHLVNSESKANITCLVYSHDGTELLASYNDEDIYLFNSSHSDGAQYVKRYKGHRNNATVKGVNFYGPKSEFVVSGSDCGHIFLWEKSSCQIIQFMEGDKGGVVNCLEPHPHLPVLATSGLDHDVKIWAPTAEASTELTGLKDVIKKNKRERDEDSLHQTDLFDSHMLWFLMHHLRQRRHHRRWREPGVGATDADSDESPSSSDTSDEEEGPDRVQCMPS

The other results are listed elsewhere or left out.

Compound in this test: CC1Cc2ccccc2N1C(=O)C1CCCN(C1)C(=O)CCl (mixture of isomers) [TRIM25 ligand 11 (diastereomer mixture)]
As to the kind of experiment: probe-labelled cysteine peptide fold change vs DMSO (competition) (log2 fold change); higher = less target engagement (more negative = stronger competition). The following applies: THP-1, incubation time: 4 h.
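Further: competitive chemoproteomic profiling in live THP-1 cells with an iodoacetamide desthiobiotin (IA-DTB) probe, comparing probe-labelled peptide intensities in compound-treated cells against DMSO-treated controls.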

Consider “CTPS2_Q9NRF8_299_ICSIALVGK (UniProt Q9NRF8)”, for which the “probe-labelled cysteine peptide fold change” value (10 µM) was -0.0233 and the “probe-labelled cysteine peptide fold change” value (50 µM) came out at 0.0453.

As for “CWF19L1_Q69YN2_288_QILAPVEESACQFFFDLNEK (UniProt Q69YN2)”, the “probe-labelled cysteine peptide fold change” value (10 µM) was 0.325 and the “probe-labelled cysteine peptide fold change” value (50 µM) was 0.0173.

As to “CXXC1_Q9P0U4_420_IQQWQQSPCIAEEHGKK (UniProt Q9P0U4)”, the “probe-labelled cysteine peptide fold change” value reads like this: (10 µM) -0.0635; (50 µM) -0.133.

As to “CXXC1_Q9P0U4_181+184+187_TEDCGHCDFCR (UniProt Q9P0U4)”, the “probe-labelled cysteine peptide fold change” value reads like this: (10 µM) 0.00453; (50 µM) -0.165.

Take “DCTN6_O00399_18_IAPGAVVCVESEIR (UniProt O00399)”: the “probe-labelled cysteine peptide fold change” value is, setting by setting: (10 µM) 0.116; (50 µM) -0.0906.

In the case of “CTSS_P25774_180_GCNGGFMTTAFQYIIDNK (UniProt P25774)”, the “probe-labelled cysteine peptide fold change” value by setting is: (10 µM) -0.0546; (50 µM) -0.156.

As to “DARS2_Q6PI48_590_LICLVTGSPSIR (UniProt Q6PI48)”, the “probe-labelled cysteine peptide fold change” value (10 µM) is 0.223 and the “probe-labelled cysteine peptide fold change” value (50 µM) was 0.379.

On to “DCAF13_Q9NV06_215_FNPIETFLLGSCASDR (UniProt Q9NV06)”, for which the “probe-labelled cysteine peptide fold change” value (10 µM) was -0.0378 and the “probe-labelled cysteine peptide fold change” value (50 µM) was -0.155.

Regarding “DBR1_Q9UK59_371_INPQTTEFCAQLGIIDINVR (UniProt Q9UK59)”, the “probe-labelled cysteine peptide fold change” value was -0.241 (10 µM) and -0.277 (50 µM).

Turning to “CYB5R4_Q7L1T6_278_CQLISK (UniProt Q7L1T6)”, the “probe-labelled cysteine peptide fold change” value runs as follows: (10 µM) 0.02; (50 µM) -0.000551.

In the case of “CTSB_P07858_105+108_EIRDQGSCGSCWAFGAVEAISDR (UniProt P07858)”, the “probe-labelled cysteine peptide fold change” value was 0.0411 (10 µM) and -0.0918 (50 µM).

Regarding “CUL1_Q13616_355_CGEAALNDPK (UniProt Q13616)”, the “probe-labelled cysteine peptide fold change” value is -0.0368 (10 µM) and -0.0819 (50 µM).

Turning to “DCAF8_Q5TAQ9_195_LQHGLEGHTGCVNTLHFNQR (UniProt Q5TAQ9)”, the “probe-labelled cysteine peptide fold change” value is 0.0546 (10 µM) and -0.0457 (50 µM).

Turning to “CXXC1_Q9P0U4_564_VPADEVCGCPLVR (UniProt Q9P0U4)”, the “probe-labelled cysteine peptide fold change” value is 0.00234 (10 µM) and -0.0541 (50 µM).
